Data as given in PubChem BioAssay AID743121 (NCATS, 2013).
Shown is one part, drawn at random, of about 26,000 deposited reagents. In the full data, 167 (0.63%) were called active. 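Calls are per gene from RSA p-values that are not deposited; an individual active-marked siRNA can sensitise only weakly.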 Unmarked entries are inactive. The numbers tell different reagents against one gene apart. Further read-outs or replicates are left out here.

Aim: 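Knock-downs that sensitise breast cancer cells to camptothecin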 (primary screen)
Cells: MDA-MB-231 cells, a human breast cancer line
Reagent: single siRNA against human genes, 20 nM siRNA (0.8 pmol per well)
Time to read-out: 120 h (drug added 48 h after transfection, read 72 h later)
Treatment: camptothecin 20 nM (about EC30) for 72 h; vehicle 0.1% DMSO in parallel plates
Read-out: 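Cell viability by ATP luminescence (CellTiter-Glo) as % of non-targeting siRNA wells, and the log2 ratio of viability without drug over viability with camptothecin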
Reading the numbers: log2 vehicle/camptothecin viability: higher = stronger sensitisation to camptothecin; viability with camptothecin: higher = more viable cells
Units: viability with camptothecin in % of control
Rule for the call: 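Active genes have an RSA gene-level p-value below 0.001, computed from the ratios of their separate siRNAs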

CYP4A11 (cytochrome P450 family 4 subfamily A member 11) #1 scored log2 vehicle/camptothecin viability -0.246; viability with camptothecin 70.
CYP4A11 (cytochrome P450 family 4 subfamily A member 11) #2 scored log2 vehicle/camptothecin viability 0.258; viability with camptothecin 52.9.
Silencing of CYP4A11 (cytochrome P450 family 4 subfamily A member 11) #3 resulted in: log2 vehicle/camptothecin viability -0.053; viability with camptothecin 91.4.
CYP4A11 (cytochrome P450 family 4 subfamily A member 11) #4 scored log2 vehicle/camptothecin viability -0.0379; viability with camptothecin 79.7.
With knock-down of CALCB (calcitonin related polypeptide beta) #1 the results were log2 vehicle/camptothecin viability -0.192; viability with camptothecin 65.6.
CALCB (calcitonin related polypeptide beta) #2 gave log2 vehicle/camptothecin viability -0.309; viability with camptothecin 79.2.
After knock-down of CALCB (calcitonin related polypeptide beta) #3, the screen gave log2 vehicle/camptothecin viability -0.316; viability with camptothecin 99.7.
Depletion of CALCB (calcitonin related polypeptide beta) #4 resulted in: log2 vehicle/camptothecin viability -0.251; viability with camptothecin 65.6.
For MLLT1 (MLLT1 super elongation complex subunit) #1 the deposit lists log2 vehicle/camptothecin viability 1.11; viability with camptothecin 27.7.
For MLLT1 (MLLT1 super elongation complex subunit) #2, the values are log2 vehicle/camptothecin viability -0.0437; viability with camptothecin 64.4.
MLLT1 (MLLT1 super elongation complex subunit) #3 scored log2 vehicle/camptothecin viability -0.283; viability with camptothecin 63.8.
With knock-down of MLLT1 (MLLT1 super elongation complex subunit) #4, the record shows log2 vehicle/camptothecin viability -0.104; viability with camptothecin 55.
After knock-down of GABRG3 (gamma-aminobutyric acid type A receptor subunit gamma3) #1, the record shows log2 vehicle/camptothecin viability -0.0296; viability with camptothecin 96.6.
Against GABRG3 (gamma-aminobutyric acid type A receptor subunit gamma3) #2 the deposit lists log2 vehicle/camptothecin viability -0.0628; viability with camptothecin 118.
GABRG3 (gamma-aminobutyric acid type A receptor subunit gamma3) #3 showed log2 vehicle/camptothecin viability -0.549; viability with camptothecin 78.2.
Depletion of GABRG3 (gamma-aminobutyric acid type A receptor subunit gamma3) #4 gave: log2 vehicle/camptothecin viability -0.13; viability with camptothecin 84.4.
For BAZ1B (bromodomain adjacent to zinc finger domain 1B) #1, the entry reads log2 vehicle/camptothecin viability -0.0567; viability with camptothecin 87.1.
Silencing of BAZ1B (bromodomain adjacent to zinc finger domain 1B) #2 resulted in: log2 vehicle/camptothecin viability 0.0891; viability with camptothecin 94.6.
After knock-down of BAZ1B (bromodomain adjacent to zinc finger domain 1B) #3 the results were log2 vehicle/camptothecin viability -0.183; viability with camptothecin 88.1.
With knock-down of BAZ1B (bromodomain adjacent to zinc finger domain 1B) #4 the results were log2 vehicle/camptothecin viability -0.205; viability with camptothecin 86.3.
For CLEC2B (C-type lectin domain family 2 member B) #1, the values are log2 vehicle/camptothecin viability -0.256; viability with camptothecin 56.7.
Silencing of CLEC2B (C-type lectin domain family 2 member B) #2 gave: log2 vehicle/camptothecin viability -0.281; viability with camptothecin 83.9.
Against CLEC2B (C-type lectin domain family 2 member B) #3, the entry reads log2 vehicle/camptothecin viability -0.204; viability with camptothecin 58.1.
STK38L (serine/threonine kinase 38 like) #1 gave log2 vehicle/camptothecin viability -0.302; viability with camptothecin 49.7.
Knock-down of STK38L (serine/threonine kinase 38 like) #2 came out at: log2 vehicle/camptothecin viability -0.0844; viability with camptothecin 28.2.
Against STK38L (serine/threonine kinase 38 like) #3 the deposit lists log2 vehicle/camptothecin viability -0.288; viability with camptothecin 92.5.
Against STK38L (serine/threonine kinase 38 like) #4, the entry reads log2 vehicle/camptothecin viability 0.112; viability with camptothecin 37.9.
For TRAPPC10 (trafficking protein particle complex subunit 10) #1 the deposit lists log2 vehicle/camptothecin viability -0.227; viability with camptothecin 91.5.
TRAPPC10 (trafficking protein particle complex subunit 10) #2 scored log2 vehicle/camptothecin viability -0.36; viability with camptothecin 79.1.
After knock-down of TRAPPC10 (trafficking protein particle complex subunit 10) #3 the results were log2 vehicle/camptothecin viability 0.283; viability with camptothecin 8.54.
After knock-down of TRAPPC10 (trafficking protein particle complex subunit 10) #4 the results were log2 vehicle/camptothecin viability 0.161; viability with camptothecin 81.2.
After knock-down of DHRS4 (dehydrogenase/reductase 4) #1, the screen gave log2 vehicle/camptothecin viability -0.232; viability with camptothecin 114.
DHRS4 (dehydrogenase/reductase 4) #2 gave log2 vehicle/camptothecin viability -0.4; viability with camptothecin 78.3.
Knock-down of DHRS4 (dehydrogenase/reductase 4) #3 gave: log2 vehicle/camptothecin viability 0.416; viability with camptothecin 53.1.
After knock-down of DHRS4 (dehydrogenase/reductase 4) #4 the results were log2 vehicle/camptothecin viability -0.115; viability with camptothecin 33.6.
After knock-down of DHRS4 (dehydrogenase/reductase 4) #5, the record shows log2 vehicle/camptothecin viability -0.638; viability with camptothecin 93.4.

In a second layout: results already given.
target | siRNA no. | log2 vehicle/camptothecin viability | viability with camptothecin
CLEC2B (C-type lectin domain family 2 member B) | 2 | -0.281 | 83.9
CLEC2B (C-type lectin domain family 2 member B) | 3 | -0.204 | 58.1
STK38L (serine/threonine kinase 38 like) | 1 | -0.302 | 49.7
STK38L (serine/threonine kinase 38 like) | 2 | -0.0844 | 28.2
STK38L (serine/threonine kinase 38 like) | 3 | -0.288 | 92.5
